Laboratory results: PMC6689043
No constants are given. Whether binding was seen depends on the method and setting. In cells and extracts the contact can be indirect. Some binding calls cover weakened binding; strength is not graded here.

T1: 14-3-3ω (Arabidopsis thaliana) (UniProt Q01525)
T1 sequence: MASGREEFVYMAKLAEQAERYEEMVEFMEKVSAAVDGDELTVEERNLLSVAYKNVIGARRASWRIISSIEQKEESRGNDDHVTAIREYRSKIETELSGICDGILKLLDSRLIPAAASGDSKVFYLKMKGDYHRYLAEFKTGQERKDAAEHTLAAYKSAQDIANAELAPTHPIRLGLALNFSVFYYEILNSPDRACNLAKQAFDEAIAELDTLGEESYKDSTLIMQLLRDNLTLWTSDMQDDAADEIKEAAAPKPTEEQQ


The binders below were run against T1, 14-3-3ω (Arabidopsis thaliana) (assay: split reporter; BiFC with YN and YC fragments of YFP; paired plasmids (10 ug) transfected into Arabidopsis leaf protoplasts with polyethylene glycol; YFP fluorescence by confocal microscopy after 12-16 h; both combinations of the YFP halves).

| Binder | binding |
| --- | --- |
| ACS7 (protein, UniProt Q9STR4 1-447) MGLPLMMERSSNNNNVELSRVAVSDTHGEDSPYFAGWKAYDENPYDESHNPSGVIQMGLAENQVSFDLLETYLEKKNPEGSMWGSKGAPGFRENALFQDYHGLKTFRQAMASFMEQIRGGKARFDPDRIVLTAGATAANELLTFILADPNDALLVPTPYYPGFDRDLRWRTGVKIVPIHCDSSNHFQITPEALESAYQTARDANIRVRGVLITNPSNPLGATVQKKVLEDLLDFCVRKNIHLVSDEIYSGSVFHASEFTSVAEIVENIDDVSVKERVHIVYSLSKDLGLPGFRVGTIYSYNDNVVRTARRMSSFTLVSSQTQHMLASMLSDEEFTEKYIRINRERLRRRYDTIVEGLKKAGIECLKGNAGLFCWMNLGFLLEKKTKDGELQLWDVILKELNLNISPGSSCHCSEVGWFRVCFANMSENTLEIALKRIHEFMDRRRRF | binds |
| Di19-2 (protein, UniProt Q8GWK1 1-221) MEDDMWCVSSSGSSRSYRSETAAKYQSGPYQDLEEFEEVDDDIAVEYPCPFCASDYDLVELCHHIDEEHRHEANNGICPVCSKRVKMHMVDHITSHHRDVLKSEQKEMSYREDPYLSDKYLQPHLDELPPSMNHHQHPSKHVSDQFLSFINNSALPNQTKLVLPDSSVEDKNPIKDSSAAKEGTSSCPLSDSDKLEKAKKCEFVQGLLSSAMFDDECDSSE | binds |

Further lines, results first:

| binding | Binder |
| --- | --- |
| binds | abscisic acid responsive element-binding factor 3 (ABF3) (protein, UniProt Q9M7Q3 1-454) MGSRLNFKSFVDGVSEQQPTVGTSLPLTRQNSVFSLTFDEFQNSWGGGIGKDFGSMNMDELLKNIWTAEESHSMMGNNTSYTNISNGNSGNTVINGGGNNIGGLAVGVGGESGGFFTGGSLQRQGSLTLPRTISQKRVDDVWKELMKEDDIGNGVVNGGTSGIPQRQQTLGEMTLEEFLVRAGVVREEPQPVESVTNFNGGFYGFGSNGGLGTASNGFVANQPQDLSGNGVAVRQDLLTAQTQPLQMQQPQMVQQPQMVQQPQQLIQTQERPFPKQTTIAFSNTVDVVNRSQPATQCQEVKPSILGIHNHPMNNNLLQAVDFKTGVTVAAVSPGSQMSPDLTPKSALDASLSPVPYMFGRVRKTGAVLEKVIERRQKRMIKNRESAARSRARKQAYTMELEAEIAQLKELNEELQKKQVEIMEKQKNQLLEPLRQPWGMGCKRQCLRRTLTGPW |
| no binding | mutated ABF3 (T451A) (protein, UniProt Q9M7Q3 1-454) MGSRLNFKSFVDGVSEQQPTVGTSLPLTRQNSVFSLTFDEFQNSWGGGIGKDFGSMNMDELLKNIWTAEESHSMMGNNTSYTNISNGNSGNTVINGGGNNIGGLAVGVGGESGGFFTGGSLQRQGSLTLPRTISQKRVDDVWKELMKEDDIGNGVVNGGTSGIPQRQQTLGEMTLEEFLVRAGVVREEPQPVESVTNFNGGFYGFGSNGGLGTASNGFVANQPQDLSGNGVAVRQDLLTAQTQPLQMQQPQMVQQPQMVQQPQQLIQTQERPFPKQTTIAFSNTVDVVNRSQPATQCQEVKPSILGIHNHPMNNNLLQAVDFKTGVTVAAVSPGSQMSPDLTPKSALDASLSPVPYMFGRVRKTGAVLEKVIERRQKRMIKNRESAARSRARKQAYTMELEAEIAQLKELNEELQKKQVEIMEKQKNQLLEPLRQPWGMGCKRQCLRRTLAGPW |
